Test results published in PubChem BioAssay AID504444 (National Center for Advancing Translational Sciences (NCATS), 2011).
About 7,500 (2.1%) of roughly 360,000 compounds were called active. The shares of active, inactive and inconclusive entries below differ from those in the screen. Calls come from the whole dose curve; as a rule, active = well fitted inhibition curve with a large enough effect; inconclusive = small, poorly fitted or top-dose-only effect, or effect the other way; inactive = flat fitted curve, though single readings scatter. A potency beside an inconclusive call is a rough fit, not a confirmed value.

Experiment: Nrf2 qHTS screen for inhibitors; note: nearly all actives have a fitted effect of over 60% in size
Conditions: A549 ARE-Fluc reporter, luciferase luminescence, 18-24 h; series mostly up to 46 µM
Method in brief: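 Concentration-response testing used A549 ARE_Fluc cells at 5000 cells/well. Following an 18-24 h compound incubation, viability was read by fluorescence (Ex 405/Em 525) and luciferase output by luminescence.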
Potency is the fitted concentration of half-maximal effect.

Row | SMILES | Potency
1 | COc1ccc(CCN2C(=O)c3[nH]nc(-c4ccccc4O)c3C2c2cccc(OC)c2)cc1 (stereo unspecified) | inconclusive: 16.4 µM [falling, single point]
2 | CCN1C(=O)c2cccc3c(S(=O)(=O)Nc4ccccc4O)ccc1c23 | inconclusive: 29.1 µM [activator, single point]
3 | Cc1ccc(-c2ccc(/C=N/n3cnnc3)o2)cc1 | inconclusive: 23.1 µM [activator, partial curve]
4 | CCc1cc(C(=O)NNC(=S)Nc2ccccc2C)cs1 | inconclusive: 4.11 µM [activator, full curve, poor fit]
5 | CCC(=O)c1cn([C@H](CCC(OC)OC)CC(=O)OC(C)(C)C)cc1CC | inactive
6 | C/C(=N\NC(=O)c1ccccc1N)c1ccc(NC(=O)Cc2ccccc2)cc1 | inconclusive: 23.1 µM [activator, single point]
7 | CCOC(=O)c1ccc(NC(=O)c2cccc3c2C(=O)N(CC2CCCO2)C3)cc1 (stereo unspecified) | inconclusive: 16.4 µM [falling, partial curve, poor fit]
8 | Cc1cccc(NC(=O)c2sc3nc4c(cc3c2N)CCCCCC4)c1C | inconclusive: 0.58 µM [activator, partial curve, poor fit]
9 | Clc1ccc(OCc2nc3ccccc3[nH]2)cc1 | inconclusive: 0.82 µM [activator, full curve]
10 | O=C(Nc1cccc(C(F)(F)F)c1)OCCN1CCN(Cc2ccccc2)CCC1=O | inconclusive: 32.6 µM [falling, partial curve, poor fit]
11 | CC(C)Cn1c2c(c(O)c(C(=O)Nc3nccs3)c1=O)CCCC2 | active: 20.6 µM
12 | COc1ccc(NC(=O)c2cc3ccccc3o2)cn1 | inconclusive: 16.4 µM [activator, partial curve]
13 | CC(C)C1C(=O)Nc2ccc(S(=O)(=O)NCc3ccc(Cl)cc3)cc21 (stereo unspecified) | active: 20.6 µM
14 | COc1ccc(Br)cc1CN(C)C(=O)CNC(=O)c1ccc2ccccc2c1 | active: 18.4 µM
15 | CCOC(=O)COn1c(=O)c(-c2ccc(OC)cc2)[n+]([O-])c2ccccc21 | inconclusive: 29.1 µM [activator, single point]
16 | O=C(c1ccccc1Cl)N(Cc1ccco1)Cc1ccco1 | inactive
17 | Cc1ccc(Nc2ccc([N+](=O)[O-])nc2[N+](=O)[O-])cc1 | inconclusive: 32.6 µM [falling, single point]
18 | Cc1ccccc1Nc1c(-c2cccc(N(C)C)c2)nc2ccc(Br)cn12 | inactive
19 | Cc1ccc(-c2csc(NC(=O)c3ccc(Br)cc3)c2C(=O)O)cc1 | inconclusive: 2.91 µM [activator, full curve]
20 | Cc1nc(N2CCN(Cc3ccc4c(c3)OCO4)CC2)nc2c1C(=O)CC(c1ccco1)C2 (stereo unspecified) | active: 11.6 µM
21 | Cc1ccccc1-c1nc2cc(NC(=O)C3CC3)ccc2o1 | inconclusive: 9.2 µM [activator, partial curve]
22 | COc1cc(NC(=O)Cc2nn(C)c(=O)c3ccccc23)cc(OC)c1OC | inconclusive: 14.6 µM [falling, partial curve]

Row | SMILES | Potency
23 | CCOc1ccc(-n2nc(CO)c(C(=O)NCc3cccnc3)n2)cc1 | inactive
24 | COc1cccc(N2CCN(C(=O)c3cc4c(=O)n(Cc5ccccc5)ccc4nc3C)CC2)c1 | inconclusive: 29.1 µM [falling, single point]
25 | CCN(CC)S(=O)(=O)c1ccc(N2CCOCC2)c(NC(=O)c2ccc(NC(C)=O)cc2)c1 | inconclusive: 18.4 µM [falling, single point]
26 | COc1ccc(OC)c(S(=O)(=O)NC2CC(=O)N(c3cccc(F)c3)C2)c1 (stereo unspecified) | inactive
27 | O=C(CN(C(=O)c1csnn1)c1ccc(F)c(Cl)c1)NCc1ccccc1 | inconclusive: 32.6 µM [falling, partial curve, poor fit]
28 | CC(=O)c1ccc(NC(=O)C(C)OC(=O)/C=C/c2ccco2)cc1 (stereo unspecified) | inconclusive: 29.1 µM [activator, partial curve, poor fit]
29 | COc1ccc(C2(C(=O)c3ccccc3)C(=O)c3ccccc3C2=O)cc1 | inactive
30 | Cc1ccc(C)c(N2CCN(S(=O)(=O)c3ccc4c(c3)C(C)(C)C(=O)N4C)CC2)c1 | inconclusive: 29.1 µM [falling, single point]
31 | CC(C)N(C(=S)Nc1cccnc1)c1ccccc1 | inactive
32 | O=C(COc1ccc(Br)cc1CO)Nc1ccc(S(=O)(=O)N2CCCCC2)cc1 | inconclusive: 29.1 µM [falling, single point]
33 | COc1ccc(C)cc1S(=O)(=O)N1CCC2(CC1)OCCN2S(=O)(=O)c1cccs1 | inconclusive: 23.1 µM [falling, partial curve, poor fit]
34 | COCCCN1C(=O)C(=O)/C(=C(/O)c2ccc(S(=O)(=O)N3CCCCC3)cc2)C1c1ccc(O)c(OC)c1 (stereo unspecified) | inactive
35 | CC(C)S(=O)(=O)c1oc(-c2ccc(F)cc2)nc1S(=O)(=O)c1ccccc1 | inconclusive: 25.9 µM [falling, single point]
36 | Cc1ccc(C)c(Nc2nc3c(S(=O)(=O)c4ccccc4)nnn3c3ccccc23)c1 | inconclusive: 1.16 µM [falling, partial curve, poor fit]
37 | CC(C)[C@H](NC(=O)OCc1ccccc1)C(=O)OCC(=O)N1C(C)CCCC1C (stereo partly specified) | inconclusive: 6.51 µM [activator, partial curve, poor fit]
38 | CCc1nn(CC(=O)NC(C)CC)c(=O)c2cc3c(OC)cccc3n12 (stereo unspecified) | inactive
39 | CCN(CC)S(=O)(=O)c1ccc(N(C)Cc2ccc(C(F)(F)F)cc2)nc1 | active: 18.4 µM
40 | Oc1c(N=Nc2ccc(F)cc2)ccc2ccccc12 | inconclusive: 20.6 µM [activator, partial curve]
41 | OC1(C(F)(F)F)CC(c2ccc3ccccc3c2)=NO1 (stereo unspecified) | inconclusive: 20.6 µM [activator, single point]
42 | Cc1ccc(C(=O)c2oc3ccccc3c2NC(=O)Cc2coc3cc(C)ccc23)cc1 | inactive
43 | CCCS(=O)(=O)c1nc(S(=O)(=O)c2ccc(C)cc2)c(NCc2ccccn2)s1 | inactive
44 | CCOc1ccc2nc(SCCNS(=O)(=O)c3ccccc3)sc2c1 | inconclusive: 29.1 µM [falling, single point]

Row | SMILES | Potency
45 | CCC1CSC(Nc2ccc(C(=O)/C=C/c3ccc(OC)c(OC)c3)cc2)=N1 (stereo unspecified) | inconclusive: 18.4 µM [falling, single point]
46 | CC(C)OC(=O)CN1C(=O)C(C)(C)Oc2ccc(C(=O)NC3CC3)cc21 | inconclusive: 0.0411 µM [activator, full curve]
47 | CCOc1ccc(OCC)c(NC(=O)CSc2nc3cccnc3n2C)c1 | inconclusive: 20.6 µM [falling, single point]
48 | O=C(OCC(=O)c1c[nH]c2ccccc12)c1cccc(O)c1 | inconclusive: 0.411 µM [falling, partial curve, poor fit]
49 | O=C(Nc1ccc2c(c1)OCCO2)C1CCN(C(=O)c2ccc([N+](=O)[O-])cc2)CC1 | inconclusive: 0.164 µM [falling, full curve, poor fit]
50 | CCCCc1ccc(NC(=O)Cn2nnc3sc4c(c3c2=O)CCC(C)C4)cc1 (stereo unspecified) | inactive
51 | CCOc1cccc(C2Nc3ccccc3-c3cc(C)nn32)c1O (stereo unspecified) | inconclusive: 10.3 µM [falling, partial curve, poor fit]
52 | COc1cccc(-c2nn(C)c3sc(C(=O)NCc4ccccn4)cc23)c1 | inconclusive: 23.1 µM [falling, single point]
53 | O=C(Nc1cccc(NC(=O)c2ccccc2Cl)c1)c1ccc(F)cc1 | inconclusive: 29.1 µM [falling, single point]
54 | Cc1cc(C(=O)NCCC2=CCCCC2)ccc1[N+](=O)[O-] | inconclusive: 2.91 µM [activator, full curve]
55 | O=C(Cn1cnc([N+](=O)[O-])n1)N/N=C/c1cccc2ccccc12 | inconclusive: 6.51 µM [activator, partial curve, poor fit]
56 | CCN=C1SC(C(=O)Nc2cccc(C(=O)O)c2)CC(=O)N1CC (stereo unspecified) | inconclusive: 0.082 µM [falling, full curve, poor fit]
57 | Clc1cccc(CSc2nncn3c2cc2sccc23)c1 | inconclusive: 18.4 µM [falling, single point]
58 | CCc1c(C)sc(NC(=O)c2cccs2)c1C#N | inconclusive: 11.6 µM [activator, partial curve, poor fit]
59 | COc1cccc(NC(=O)CC(=O)c2ccccc2)c1 | inconclusive: 11.6 µM [activator, partial curve, poor fit]
60 | Cc1c(CCC(=O)NCCCn2ccnc2)c(=O)oc2c(C)c3oc4c(c3cc12)CCCC4 | inconclusive: 23.1 µM [falling, partial curve]
61 | CC1Cc2ccccc2N1C(=O)C1CCCN(S(=O)(=O)c2cccc3cccnc23)C1 (stereo unspecified) | inconclusive: 23.1 µM [falling, single point]
62 | Cc1ccc(-n2nc3c(c2NC(=O)c2cccs2)CSC3)cc1 | inconclusive: 16.4 µM [falling, single point]
63 | Cc1cc(NC(=O)C(C)Oc2ccc(Cl)cc2Cl)n(-c2ccccc2)n1 (stereo unspecified) | inconclusive: 20.6 µM [falling, single point]
64 | COc1ccccc1CC1(C)NC(=O)N(CC(=O)N2CCc3ccccc3C2)C1=O (stereo unspecified) | inconclusive: 6.51 µM [falling, single point]
65 | Cc1cc(=O)oc2cc(OCC(=O)NCc3ccccn3)ccc12 | inactive
66 | COc1ccc(N2CCN(C(CNC(=O)C(=O)NCCC3=CCCCC3)c3ccco3)CC2)cc1 (stereo unspecified) | inactive

Reformatted: four of the compounds above
Row	SMILES	Potency
18	Cc1ccccc1Nc1c(-c2cccc(N(C)C)c2)nc2ccc(Br)cn12	inactive
19	Cc1ccc(-c2csc(NC(=O)c3ccc(Br)cc3)c2C(=O)O)cc1	inconclusive: 2.91 µM [activator, full curve]
20	Cc1nc(N2CCN(Cc3ccc4c(c3)OCO4)CC2)nc2c1C(=O)CC(c1ccco1)C2 (stereo unspecified)	active: 11.6 µM
21	Cc1ccccc1-c1nc2cc(NC(=O)C3CC3)ccc2o1	inconclusive: 9.2 µM [activator, partial curve]
